Reference: paper PMC8366450
No constants are given. Whether binding was seen depends on the method and setting. Binding seen in cells or lysates may run through a third protein. Some binding calls cover weakened binding; strength is not graded here.

Chains of the proteins cited; added tags and fusions are not shown.
UniProt O00459: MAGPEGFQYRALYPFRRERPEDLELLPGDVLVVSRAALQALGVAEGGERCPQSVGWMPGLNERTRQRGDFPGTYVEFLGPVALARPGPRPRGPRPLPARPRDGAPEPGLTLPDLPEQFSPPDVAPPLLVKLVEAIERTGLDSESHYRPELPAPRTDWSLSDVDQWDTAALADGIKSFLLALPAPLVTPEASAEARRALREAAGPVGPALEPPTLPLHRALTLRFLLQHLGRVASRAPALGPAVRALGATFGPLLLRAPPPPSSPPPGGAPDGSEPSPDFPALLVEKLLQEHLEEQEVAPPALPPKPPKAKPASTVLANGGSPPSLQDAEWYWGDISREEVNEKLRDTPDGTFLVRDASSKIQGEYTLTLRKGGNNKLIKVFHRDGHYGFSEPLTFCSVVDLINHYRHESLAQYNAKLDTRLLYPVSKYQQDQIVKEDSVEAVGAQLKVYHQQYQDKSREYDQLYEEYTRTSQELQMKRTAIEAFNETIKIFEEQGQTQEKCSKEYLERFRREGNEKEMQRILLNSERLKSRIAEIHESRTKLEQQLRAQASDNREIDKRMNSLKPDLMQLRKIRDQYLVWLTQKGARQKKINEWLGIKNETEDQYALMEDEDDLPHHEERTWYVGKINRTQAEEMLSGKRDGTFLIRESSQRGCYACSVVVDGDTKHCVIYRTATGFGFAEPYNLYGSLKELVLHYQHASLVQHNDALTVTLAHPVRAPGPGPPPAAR
UniProt O96013: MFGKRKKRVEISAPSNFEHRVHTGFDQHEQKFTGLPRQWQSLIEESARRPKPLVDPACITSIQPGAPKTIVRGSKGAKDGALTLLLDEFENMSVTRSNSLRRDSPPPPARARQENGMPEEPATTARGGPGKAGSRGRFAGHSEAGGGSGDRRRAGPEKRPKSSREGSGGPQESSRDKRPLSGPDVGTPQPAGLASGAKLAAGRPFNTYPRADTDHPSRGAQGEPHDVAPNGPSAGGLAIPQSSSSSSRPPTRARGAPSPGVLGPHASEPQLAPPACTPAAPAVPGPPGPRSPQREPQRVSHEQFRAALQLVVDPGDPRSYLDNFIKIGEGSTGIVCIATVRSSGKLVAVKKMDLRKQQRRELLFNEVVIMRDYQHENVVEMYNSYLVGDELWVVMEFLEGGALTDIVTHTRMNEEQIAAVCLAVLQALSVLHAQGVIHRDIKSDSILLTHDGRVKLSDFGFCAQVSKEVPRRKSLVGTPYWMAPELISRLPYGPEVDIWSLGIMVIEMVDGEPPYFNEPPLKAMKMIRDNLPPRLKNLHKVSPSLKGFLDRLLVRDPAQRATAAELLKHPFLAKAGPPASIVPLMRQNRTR

Tests used:
[1] = molecular target: myc-tagged PIK3R2 (human) (UniProt O00459); test: co-IP; HEK293T cells cotransfected with flag-CPPED1 and myc-PAK4 or myc-PIK3R2, 48 h; precipitation with anti-c-Myc agarose, control agarose as negative control; Western blot with anti-flag and anti-CPPED1
myc-tagged PAK4 (human) = myc-tagged PAK4 (human) (UniProt O96013); test: as above

binding [1]: binds | binding (myc-tagged PAK4 (human)): binds
Substance: flag-tagged CPPED1 (from UniProt Q9BRF8 1-314) (enzyme)
